The text below walks through data of PMC7862700.

This is a selection; strong and weak results do not stand in their true shares. At the low end of the ranking, values are background and their order means little.

Holding throughout (assay): DAPPL (digital affinity profiling via proximity ligation, sequencing)
Conditions in all cases: 10 mM Tris-HCl pH 7.5, 50 mM NaCl, 1 mM DTT, 4% glycerol, room temperature, 30 min; GST-TFs on glutathione beads, 16-mer random dsDNA library, 0.1% …; high values mean tight binding; double strand, one strand shown; scale: fold enrichment (6-mer frequency, TF over GST control)

Assay [1] concerns the target T1, ELK1 (UniProt P19419).
T1 sequence: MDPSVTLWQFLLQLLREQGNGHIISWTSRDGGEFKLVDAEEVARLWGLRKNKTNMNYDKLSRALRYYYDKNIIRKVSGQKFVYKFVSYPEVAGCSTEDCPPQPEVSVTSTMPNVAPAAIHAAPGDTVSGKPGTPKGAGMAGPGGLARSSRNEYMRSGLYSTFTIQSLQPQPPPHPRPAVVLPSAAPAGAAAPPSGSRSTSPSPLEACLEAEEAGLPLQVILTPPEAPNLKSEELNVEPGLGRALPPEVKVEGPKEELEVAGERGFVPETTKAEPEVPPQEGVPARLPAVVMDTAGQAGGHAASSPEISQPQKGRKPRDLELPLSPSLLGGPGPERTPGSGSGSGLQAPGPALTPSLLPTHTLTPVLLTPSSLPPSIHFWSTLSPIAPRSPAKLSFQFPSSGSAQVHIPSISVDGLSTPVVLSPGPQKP

Assay [2] has as its target T2, ELK3 (UniProt P41970).
T2 sequence: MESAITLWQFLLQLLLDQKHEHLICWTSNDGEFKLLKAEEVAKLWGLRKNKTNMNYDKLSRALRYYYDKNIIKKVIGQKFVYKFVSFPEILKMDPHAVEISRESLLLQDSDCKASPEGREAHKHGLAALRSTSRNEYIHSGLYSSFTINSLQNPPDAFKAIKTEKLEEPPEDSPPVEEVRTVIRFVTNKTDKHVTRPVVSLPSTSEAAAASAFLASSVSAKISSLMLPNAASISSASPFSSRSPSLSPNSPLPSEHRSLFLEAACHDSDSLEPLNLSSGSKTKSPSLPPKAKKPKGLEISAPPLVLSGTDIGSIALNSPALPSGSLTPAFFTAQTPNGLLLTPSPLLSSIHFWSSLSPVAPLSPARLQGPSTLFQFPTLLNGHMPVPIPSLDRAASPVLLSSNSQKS

Assay [3] addresses T3, ETS2 (UniProt P15036).
T3 sequence: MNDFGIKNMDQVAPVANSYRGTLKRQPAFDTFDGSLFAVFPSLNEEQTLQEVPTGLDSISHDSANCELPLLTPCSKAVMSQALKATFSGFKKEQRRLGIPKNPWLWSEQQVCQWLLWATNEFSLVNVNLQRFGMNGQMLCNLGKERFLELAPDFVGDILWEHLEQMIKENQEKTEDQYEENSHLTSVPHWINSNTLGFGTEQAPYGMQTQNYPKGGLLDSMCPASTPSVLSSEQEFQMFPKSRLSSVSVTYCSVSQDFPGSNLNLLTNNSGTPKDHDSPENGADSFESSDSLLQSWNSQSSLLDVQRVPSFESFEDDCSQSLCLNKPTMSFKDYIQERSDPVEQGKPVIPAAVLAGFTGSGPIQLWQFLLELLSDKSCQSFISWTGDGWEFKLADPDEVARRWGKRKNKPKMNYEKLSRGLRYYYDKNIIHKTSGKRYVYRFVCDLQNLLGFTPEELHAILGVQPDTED

Assay [4] has as its target T4, ETV3 (UniProt P41162-2).
T4 sequence: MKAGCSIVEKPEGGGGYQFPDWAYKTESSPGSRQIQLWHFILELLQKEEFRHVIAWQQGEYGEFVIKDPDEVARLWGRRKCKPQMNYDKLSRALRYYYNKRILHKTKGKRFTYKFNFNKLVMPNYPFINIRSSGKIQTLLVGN

For the sequence TGCAGA, the binding signal in assay [1] was 0.994; in assay [2] it was 0.963; in assay [3], 0.98; in assay [4] it was 0.943.
On the same counts, the results for TCAGAC are 0.917, 0.795, 0.865 and 0.883.
Regarding ATAGTC, the binding signal in assay [1] stood at 0.899; in assay [2] it was 0.912; in assay [3] it was 0.915; in assay [4] it was 0.894.
On the same counts, the results for CTGGCG are 0.818, 0.845, 0.769 and 0.812.
For the sequence TTCGGC, the binding signal came to 1.14 in assay [1], 0.876 in assay [2] and 0.968 in assay [3].
GTAAGC: the binding signal turned out to be 0.9 in assay [1], 0.868 in assay [2], 0.993 in assay [3] and 0.941 in assay [4].
On to AAACAG, for which the binding signal turned out to be 0.949 in assay [1], 0.982 in assay [2] and 0.989 in assay [3].
For the sequence ATAAGG, the binding signal in assay [1] came out at 1.01; in assay [2], 1.19; in assay [3], 0.995.
Take ACTGTC: the binding signal in assay [1] stood at 0.995; in assay [2], 0.939; in assay [3], 0.955; in assay [4], 0.907.
With CTGTAG, the binding signal turned out to be 0.997 in assay [1], 0.874 in assay [2], 0.891 in assay [3] and 0.996 in assay [4].
On the same counts, the results for AGTTTG are 0.995, 0.931, 0.966 and 0.994.
On the same counts, the results for CGCTGT are 0.87, 0.865, 0.947 and 0.987.
For AGATGG the same measures were 0.823, 0.821, 0.826 and 0.876.
For GTTGTC, the binding signal is 0.844 in assay [1], 0.707 in assay [2], 0.881 in assay [3] and 0.832 in assay [4].
For CTAGGG the same measures were 0.91, 0.848, 0.932 and 0.929.
For ACGCTC, the binding signal in assay [1] was 0.96; in assay [2], 0.918; in assay [3], 0.971; in assay [4], 0.974.
For the sequence TGCCCT, the binding signal in assay [1] was 1.25; in assay [2] it was 1.07; in assay [3], 1.21.
Regarding CACACC, the binding signal was found to be 1.07 in assay [1], 0.975 in assay [2], 0.983 in assay [3] and 0.99 in assay [4].
With CATCCA, the binding signal in assay [1] is 1.06; in assay [2], 0.964; in assay [3], 0.937; in assay [4], 0.993.
As for ACAAGA, the binding signal in assay [1] came to 0.923; in assay [2] it was 0.979; in assay [3] it was 0.986; in assay [4], 0.926.
On the same counts, the results for GTGATG are 0.935, 0.906, 0.885 and 0.886.
As for CGAAAT, the binding signal in assay [1] stood at 0.99; in assay [2] it was 0.952; in assay [3], 0.984.
On the same counts, the results for TTGCCA are 0.988, 1.05 and 1.05.
In the case of GGACTC, the binding signal was 0.976 in assay [1], 1.04 in assay [2] and 0.994 in assay [3].
As for GCGTTG, the binding signal in assay [1] worked out at 0.926; in assay [2], 0.784; in assay [3], 0.894; in assay [4], 0.873.
Consider GTATAA, for which the results for the binding signal in assay [1], in assay [2] and in assay [3] were 1.21, 0.987 and 1.08, respectively.
For AGACTC, the binding signal in assay [1] turned out to be 0.88; in assay [2], 0.91; in assay [3], 0.96; in assay [4], 0.888.
Turning to CCCGCG, the binding signal is 1.05 in assay [1], 0.95 in assay [2] and 0.947 in assay [3].
On to TAGTTG, for which the binding signal in assay [1] was determined as 0.905; in assay [2], 0.977; in assay [3], 0.911; in assay [4] it was 0.951.
For GATGGA the same measures were 0.889, 0.873, 0.895 and 0.883.
For TGGCGT the same measures were 0.906, 0.942, 0.913 and 0.92.
ATTGTG: the binding signal was 0.925 in assay [1], 0.907 in assay [2], 0.968 in assay [3] and 0.898 in assay [4].
For the sequence AGCAGA, the binding signal in assay [1] worked out at 0.878; in assay [2], 0.926; in assay [3], 0.935; in assay [4], 0.965.
On the same counts, the results for GGCTAA are 0.965, 1.02, 0.998 and 0.979.
Consider CTGAAG, for which the figures for the binding signal in assay [1] and in assay [4] were 1.14 and 1.05, respectively.
ATGAGG: the binding signal was determined as 0.899 in assay [1], 0.966 in assay [2] and 0.985 in assay [3].
TTGCAA: the figures for the binding signal in assay [1] and in assay [4] were 1.28 and 1.18, respectively.
Turning to CCGACA, the binding signal in assay [1] amounted to 1.18; in assay [2], 1.16; in assay [3], 1.26.
For the sequence GACTAC, the binding signal came to 1.19 in assay [1] and 1.11 in assay [4].
On the same counts, the results for GATACA are 0.989 and 1.01.
On the same counts, the results for CATTGC are 0.985 and 0.938.
For TGTTCG the same measures were 1.1 and 1.01.
In the case of CGTTTC, the binding signal in assay [1] is 1.68; in assay [4], 1.83.
On the same counts, the results for AGAAAA are 0.934 and 0.964.
On the same counts, the results for ATAGGC are 0.95 and 0.945.
For GGTATG, the binding signal in assay [1] was determined as 1.03; in assay [2], 0.997; in assay [3], 0.927.
Turning to TGTCCT, the binding signal in assay [1] is 1.38; in assay [2], 1.41; in assay [3] it was 1.47.
With CTCCCC, the binding signal stood at 1.31 in assay [1] and 1.38 in assay [4].
For CCCGAA the same measures were 1.26 and 1.33.
With GACTTA, the figures for the binding signal in assay [1], in assay [2] and in assay [3] were 0.999, 0.838 and 0.965, respectively.
On to AACGCG, for which the binding signal in assay [1] came out at 0.994; in assay [2], 0.963; in assay [3], 0.99.
